# Among all 400,000 compounds or so, about 5,500 (1.4%) were called active. This list was built around the results that the source calls inconclusive (neither active nor inactive); the mix of calls is not that of the screen. Calls come from the whole dose curve; as a rule, active = well fitted cell-killing curve with a large enough effect; inconclusive = small, poorly fitted or top-dose-only effect, or effect the other way; inactive = flat fitted curve, though single readings scatter. Where the call is inconclusive, the potency comes from a doubtful curve fit.
# Assay: qHTS assay for MDR1-selective chemotherapeutics: Primary screen using the parental adenocarcinoma cell KB-3-1; note: nearly all actives have a fitted effect of over 60% in size
# Details: KB-3-1 viability, CellTiter-Glo ATP luminescence, 72 h; activity change, negative = cytotoxic: at 46.1 µM (top of the series)
# In short: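 KB-3-1 cells, DMEM (no phenol red) + 10% FBS; compound by pin transfer, 72 h, 37 °C. Readout: CellTiter-Glo luminescence after 10 min. Data normalized, curve-fitted.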
# % is set by controls: 0 for no effect and ±100 for the full control effect; potency is the fitted concentration of half-maximal effect.
SMILES,Potency,"activity change, negative = cytotoxic"
O=C1C=CC2C(c3ccc4c(c3)OCO4)CC1N2Cc1ccccc1 (centres undefined),active: 9.2 µM,
COc1cccc(C2CC(=O)Nc3cc4c(cc32)OCCO4)c1OC(C)C (centres undefined),"inconclusive: 29.1 µM [cytotoxic, single point]",
Cc1nc(C)c(C(=O)NCc2ccccc2Cl)o1,"inconclusive: 18.4 µM [cytotoxic, single point]",
O=C(O/N=C\c1ccc(N2CCCCC2)c([N+](=O)[O-])c1)c1cccc(C(F)(F)F)c1,"inconclusive: 14.6 µM [cytotoxic, partial curve]",
Cc1ccccc1-c1nc(S(=O)(=O)c2ccccc2)c(NCCCN2CCOCC2)o1,active: 23.1 µM,
COc1ccc(C(=O)NCC(c2cccnc2)N2CCN(c3ccccc3)CC2)cc1OC (centres undefined),active: 5.17 µM,
Cc1noc(NC(=O)c2ccc(Cl)c(Cl)c2)c1Cl,"inconclusive: 16.4 µM [cytotoxic, partial curve, poor fit]",
COc1ccccc1NC(=O)c1c(-c2ccc(C)cc2)nnc2ccccc12,,inactive: 1.28%
CC(C)C1CC(=O)NC(SCC(=O)Nc2ccc(Br)cc2)=C1C#N (centres undefined),"inconclusive: 29.1 µM [cytotoxic, single point]",
Cc1ccc(C)c(N2CCN(C(=S)Nc3ccc4nc(N5CCN(C)CC5)cc(C)c4c3)CC2)c1,"inconclusive: 23.1 µM [cytotoxic, single point]",
COc1cc(C2CC(=O)Nc3cc4c(cc32)OCO4)cc(OC)c1O (centres undefined),"inconclusive: 14.6 µM [cytotoxic, partial curve]",
COc1cccc(NC(=O)Cn2c(=O)oc3cc(S(=O)(=O)N4CCCCC4)ccc32)c1,"inconclusive: 29.1 µM [cytotoxic, single point]",
Cc1ccc(CNC(=O)CC[C@H]2O[C@@H](n3cc(C)c(=O)[nH]c3=O)C[C@@H]2O)o1,,inactive: 0.0302%
O=c1c2ccccc2nc(SCc2cn3ccsc3n2)n1-c1ccccc1F,"inconclusive: 29.1 µM [cytotoxic, single point]",
COc1ccc(OC)c(CCNC(=O)c2nc(-c3ccc(Cl)cc3)n3c2CCCCC3)c1,"inconclusive: 20.6 µM [cytotoxic, single point]",
CCCN(Cc1cc2ccccc2[nH]c1=O)C(=O)c1cccc([N+](=O)[O-])c1,,inactive: -5.19%
COC(=O)c1ccccc1NC(=O)C1CCCN(S(=O)(=O)c2ccccc2)C1 (centres undefined),"inconclusive: 25.9 µM [cytotoxic, single point]",
Cc1ccc(C[n+]2cccc(-c3ccccc3)c2)c(C)c1,,inactive: 0%
O=[N+]([O-])/C=C/c1cn(Cc2ccccc2)c2ccccc12,"inconclusive: 23.1 µM [cytotoxic, single point]",

# Four of the compounds above, bar-delimited:
SMILES | Potency | activity change, negative = cytotoxic
CC(C)C1CC(=O)NC(SCC(=O)Nc2ccc(Br)cc2)=C1C#N (centres undefined) | inconclusive: 29.1 µM [cytotoxic, single point] | 
Cc1ccc(C)c(N2CCN(C(=S)Nc3ccc4nc(N5CCN(C)CC5)cc(C)c4c3)CC2)c1 | inconclusive: 23.1 µM [cytotoxic, single point] | 
COc1cc(C2CC(=O)Nc3cc4c(cc32)OCO4)cc(OC)c1O (centres undefined) | inconclusive: 14.6 µM [cytotoxic, partial curve] | 
COc1cccc(NC(=O)Cn2c(=O)oc3cc(S(=O)(=O)N4CCCCC4)ccc32)c1 | inconclusive: 29.1 µM [cytotoxic, single point] | 

# Reference: PubChem BioAssay AID1347075 (National Center for Advancing Translational Sciences (NCATS), 2019)
